Drawing on paper PMC9744749, this text covers binding for 1 substance.

Protein sequences, listed by entry. Tags and fused reporters are not part of them.
UniProt Q8BKJ9: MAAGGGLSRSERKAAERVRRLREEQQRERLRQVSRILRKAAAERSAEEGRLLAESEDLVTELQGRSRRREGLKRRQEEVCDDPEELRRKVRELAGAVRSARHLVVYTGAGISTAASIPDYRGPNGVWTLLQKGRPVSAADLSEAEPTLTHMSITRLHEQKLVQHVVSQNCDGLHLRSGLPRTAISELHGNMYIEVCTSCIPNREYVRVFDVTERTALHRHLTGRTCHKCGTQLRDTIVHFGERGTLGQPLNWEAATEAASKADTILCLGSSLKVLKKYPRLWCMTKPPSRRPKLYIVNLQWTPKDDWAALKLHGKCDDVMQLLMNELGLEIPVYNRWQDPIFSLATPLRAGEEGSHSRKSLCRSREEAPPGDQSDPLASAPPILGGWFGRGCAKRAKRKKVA
UniProt Q5SF07: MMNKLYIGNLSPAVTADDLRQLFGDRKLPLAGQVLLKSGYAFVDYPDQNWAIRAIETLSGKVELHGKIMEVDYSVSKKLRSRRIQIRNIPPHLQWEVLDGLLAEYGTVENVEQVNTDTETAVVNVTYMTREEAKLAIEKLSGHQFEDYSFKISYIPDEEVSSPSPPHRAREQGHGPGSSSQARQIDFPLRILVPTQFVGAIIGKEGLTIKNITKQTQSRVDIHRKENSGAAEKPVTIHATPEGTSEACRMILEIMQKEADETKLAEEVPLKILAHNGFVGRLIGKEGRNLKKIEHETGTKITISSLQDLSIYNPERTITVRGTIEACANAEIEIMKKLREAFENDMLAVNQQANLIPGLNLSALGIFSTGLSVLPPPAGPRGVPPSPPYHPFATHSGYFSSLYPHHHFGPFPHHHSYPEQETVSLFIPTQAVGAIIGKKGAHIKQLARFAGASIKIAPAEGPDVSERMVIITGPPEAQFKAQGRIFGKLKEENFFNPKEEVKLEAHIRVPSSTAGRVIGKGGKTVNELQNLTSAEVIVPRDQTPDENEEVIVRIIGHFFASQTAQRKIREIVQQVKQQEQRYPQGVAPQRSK

No constants are given. Whether binding was seen depends on the method and setting. In cells and extracts the contact can be indirect. Some binding calls cover weakened binding; strength is not graded here.

The target of one test is Halo-SIRT7 (UniProt Q8BKJ9). The experiment in a line: pull-down; Halo-SIRT7 immobilised on HaloLink Resin, incubated with lysates of transfected HEK293T cells in pull-down buffer (10 mM Tris-HCl pH 7.4, 150 mM NaCl, 0.5% NP-40, 10 mM nicotinamide, 1 uM TSA) at 4 °C overnight; five washes; western blotting; only the target purified.
The target in another test is FLAG-SIRT7 (UniProt Q8BKJ9). The test can be described thus: co-IP; HEK293T cells co-transfected for 24 h; lysis buffer 20 mM Tris-HCl pH 7.4, 150 mM NaCl, 2.5 mM MgCl2, 0.5% NP-40, 10 mM nicotinamide, 1 uM TSA; immunoprecipitation with anti-FLAG antibody beads overnight at 4 °C; western blotting.

For the substance 3×HA-IMP2 (from UniProt Q5SF07 1-592), the binding entry in the test with Halo-SIRT7 and with FLAG-SIRT7 was “binds” in each case.
